According to the supplement of paper PMC11348887:
This is one part of the list. Most entries show no effect beyond the scatter of the controls.

Experiments:
Conditions in all cases: 5 µM; treatment: days 7-14 after plating, readout day 21
[1] = test system: hPSC-derived cortical neurons (WA09); test: nucleus area z-score vs screen plate; higher = larger nuclei (more mature)
[2] = test system: hPSC-derived cortical neurons (WA09); test: total neurite length per nucleus (MAP2) z-score; higher = more neurite growth
[3] = test system: hPSC-derived cortical neurons (WA09); test: nucleus roundness z-score vs screen plate; higher = rounder nuclei (more mature)
[4] = test system: hPSC-derived cortical neurons (WA09); test: KCl-induced FOS+/EGR-1+ double-positive nuclei fraction z-score (KCl minus unstimulated); higher = stronger activity-induced IEG response

Structure (SMILES) | nucleus area z-score [1] | total neurite length per nucleus (z-score) [2] | nucleus roundness z-score [3] | KCl-induced FOS+/EGR-1+ double-positive nuclei fraction z-score [4]
O=C(NS(=O)(=O)c1ccc(Br)s1)c1ccc(Cl)cc1Cl [Tasisulam] | 1.44 | -0.319 | -0.498 | 0.123
Cc1nn(C)c(COc2ccc(N3CCN(S(=O)(=O)N(C)C)CC3)cc2)c1-c1cccc2c(CCCOc3cccc4ccccc34)c(C(=O)O)n(CCN3CCOCC3)c12 | 1.05 | 1.53 | 1.22 | -0.27
Cc1ccc(-c2ncc(Cl)cc2-c2ccc(S(C)(=O)=O)cc2)cn1 [Etoricoxib] | -0.195 | -0.373 | 0.117 | 1.03
Cc1c(N)c(=O)n(-c2ccccc2)n1C [4-Aminoantipyrine] | 0.694 | 0.74 | 0.328 | 0.794
O=C(O)c1ccccc1C(=O)Nc1ccc(-c2ccccc2)cc1 [Kartogenin] | -0.11 | 0.463 | 0.0353 | 0.631
O=c1cc(N2CCOCC2)oc2c(-c3ccccc3)cccc12 | 0.13 | 0.153 | 1.32 | -0.0806
O=C(O)c1ccc(Nc2ncc3c(n2)-c2ccc(Cl)cc2C(c2c(F)cccc2F)=NC3)cc1 | 0.761 | 1.44 | 1.19 | 1.38
Cc1cc(NC(=O)c2cccc(NC(=O)/C=C/CN(C)C)c2)ccc1Nc1nccc(-c2cccnc2)n1 | -1.59 | -1.66 | 3.72 | 0.358
